The other results are listed elsewhere or left out. Small differences around the control level are noise.
Compound: CN[C@@H]1C[C@H]2O[C@@](C)([C@@H]1OC)n1c3ccccc3c3c4c(c5c6ccccc6n2c5c31)C(=O)NC4 [staurosporine]
Assay: log2 fold change of tryptic peptide abundance, ligand vs vehicle (limited proteolysis) (log2 ratio); higher = more trypsin-susceptible (destabilized)
Conditions: ligand concentration: 20 uM; sample: K562 cleared lysate; digestion: 4 min, 22 C (HT-PELSA RT4min, Orbitrap Astral)

Protein sequences, listed by entry. Tags and fused reporters are not part of them. Lines headed by an entry give the natural chain unless they say otherwise; changes in a name come on top.
UniProt P05412, whole entry: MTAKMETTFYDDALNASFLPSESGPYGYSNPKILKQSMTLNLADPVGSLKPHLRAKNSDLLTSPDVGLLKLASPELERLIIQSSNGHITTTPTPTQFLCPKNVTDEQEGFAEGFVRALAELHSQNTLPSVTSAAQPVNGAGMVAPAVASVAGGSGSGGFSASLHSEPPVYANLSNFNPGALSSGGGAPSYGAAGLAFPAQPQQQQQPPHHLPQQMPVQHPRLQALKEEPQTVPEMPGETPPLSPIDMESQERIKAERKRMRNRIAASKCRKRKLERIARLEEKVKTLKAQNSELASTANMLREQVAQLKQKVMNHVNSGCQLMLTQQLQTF
UniProt P04843: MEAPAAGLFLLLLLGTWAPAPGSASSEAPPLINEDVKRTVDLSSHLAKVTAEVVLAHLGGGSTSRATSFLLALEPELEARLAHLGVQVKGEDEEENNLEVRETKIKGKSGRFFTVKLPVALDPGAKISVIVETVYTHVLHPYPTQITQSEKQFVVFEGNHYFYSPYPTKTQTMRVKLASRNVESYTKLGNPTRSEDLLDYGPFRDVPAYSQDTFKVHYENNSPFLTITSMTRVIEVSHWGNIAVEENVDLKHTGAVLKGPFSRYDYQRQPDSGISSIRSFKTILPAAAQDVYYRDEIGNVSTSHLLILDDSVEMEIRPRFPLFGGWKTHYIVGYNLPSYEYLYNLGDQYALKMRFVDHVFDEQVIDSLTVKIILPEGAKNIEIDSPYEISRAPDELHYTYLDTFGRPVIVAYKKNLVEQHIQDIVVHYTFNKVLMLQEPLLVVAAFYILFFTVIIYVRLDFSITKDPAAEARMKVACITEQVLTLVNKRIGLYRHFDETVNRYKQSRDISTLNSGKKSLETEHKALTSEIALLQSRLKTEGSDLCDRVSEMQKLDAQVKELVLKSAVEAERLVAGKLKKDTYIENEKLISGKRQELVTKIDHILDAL
UniProt P10276, whole entry: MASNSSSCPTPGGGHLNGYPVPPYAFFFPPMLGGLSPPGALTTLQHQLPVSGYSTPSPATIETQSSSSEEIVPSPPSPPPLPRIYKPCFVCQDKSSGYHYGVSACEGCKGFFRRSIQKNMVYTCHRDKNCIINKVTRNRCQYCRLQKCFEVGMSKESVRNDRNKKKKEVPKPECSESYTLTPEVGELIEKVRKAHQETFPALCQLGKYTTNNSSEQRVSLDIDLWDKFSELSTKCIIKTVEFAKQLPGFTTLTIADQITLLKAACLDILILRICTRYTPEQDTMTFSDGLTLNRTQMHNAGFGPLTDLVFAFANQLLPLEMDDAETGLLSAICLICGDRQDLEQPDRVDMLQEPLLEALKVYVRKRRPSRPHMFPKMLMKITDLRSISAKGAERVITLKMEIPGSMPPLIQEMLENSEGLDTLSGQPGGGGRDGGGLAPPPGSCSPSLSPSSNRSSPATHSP
UniProt P05783: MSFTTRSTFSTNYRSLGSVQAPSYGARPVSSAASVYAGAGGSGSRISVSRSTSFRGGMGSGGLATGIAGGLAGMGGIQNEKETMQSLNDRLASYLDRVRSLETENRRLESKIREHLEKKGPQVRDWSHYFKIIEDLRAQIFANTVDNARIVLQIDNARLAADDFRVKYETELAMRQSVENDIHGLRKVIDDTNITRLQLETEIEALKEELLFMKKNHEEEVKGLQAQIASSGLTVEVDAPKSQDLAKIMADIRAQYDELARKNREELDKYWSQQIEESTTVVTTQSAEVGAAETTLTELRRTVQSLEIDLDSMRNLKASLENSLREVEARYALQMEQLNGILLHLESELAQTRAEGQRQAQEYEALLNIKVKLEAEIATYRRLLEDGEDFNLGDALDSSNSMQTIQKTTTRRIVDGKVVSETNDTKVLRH
UniProt P0DPD7: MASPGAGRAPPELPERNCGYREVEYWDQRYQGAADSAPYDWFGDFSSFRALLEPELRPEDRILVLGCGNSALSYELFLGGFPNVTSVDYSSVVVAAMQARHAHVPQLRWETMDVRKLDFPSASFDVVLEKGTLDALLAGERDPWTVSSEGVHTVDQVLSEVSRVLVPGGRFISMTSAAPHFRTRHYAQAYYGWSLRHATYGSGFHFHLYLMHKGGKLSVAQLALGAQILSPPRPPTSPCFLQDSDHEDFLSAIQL
UniProt P04083: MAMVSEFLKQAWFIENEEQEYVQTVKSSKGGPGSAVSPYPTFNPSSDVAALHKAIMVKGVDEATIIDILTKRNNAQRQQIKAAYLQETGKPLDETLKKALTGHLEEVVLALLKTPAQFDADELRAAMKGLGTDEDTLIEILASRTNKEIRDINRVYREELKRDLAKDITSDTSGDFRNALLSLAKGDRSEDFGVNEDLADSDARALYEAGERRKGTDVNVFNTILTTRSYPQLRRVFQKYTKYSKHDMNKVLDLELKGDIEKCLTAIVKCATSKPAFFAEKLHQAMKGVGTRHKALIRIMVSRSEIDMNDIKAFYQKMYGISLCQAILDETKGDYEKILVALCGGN
UniProt P0C7P4: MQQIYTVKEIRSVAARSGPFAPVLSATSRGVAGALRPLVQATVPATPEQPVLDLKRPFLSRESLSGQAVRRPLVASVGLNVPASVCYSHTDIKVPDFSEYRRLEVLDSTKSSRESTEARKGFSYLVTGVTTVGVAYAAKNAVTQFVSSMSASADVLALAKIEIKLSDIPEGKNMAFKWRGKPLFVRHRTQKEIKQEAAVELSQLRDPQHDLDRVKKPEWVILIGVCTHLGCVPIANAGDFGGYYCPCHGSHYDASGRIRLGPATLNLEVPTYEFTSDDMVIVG
UniProt P11940, whole entry: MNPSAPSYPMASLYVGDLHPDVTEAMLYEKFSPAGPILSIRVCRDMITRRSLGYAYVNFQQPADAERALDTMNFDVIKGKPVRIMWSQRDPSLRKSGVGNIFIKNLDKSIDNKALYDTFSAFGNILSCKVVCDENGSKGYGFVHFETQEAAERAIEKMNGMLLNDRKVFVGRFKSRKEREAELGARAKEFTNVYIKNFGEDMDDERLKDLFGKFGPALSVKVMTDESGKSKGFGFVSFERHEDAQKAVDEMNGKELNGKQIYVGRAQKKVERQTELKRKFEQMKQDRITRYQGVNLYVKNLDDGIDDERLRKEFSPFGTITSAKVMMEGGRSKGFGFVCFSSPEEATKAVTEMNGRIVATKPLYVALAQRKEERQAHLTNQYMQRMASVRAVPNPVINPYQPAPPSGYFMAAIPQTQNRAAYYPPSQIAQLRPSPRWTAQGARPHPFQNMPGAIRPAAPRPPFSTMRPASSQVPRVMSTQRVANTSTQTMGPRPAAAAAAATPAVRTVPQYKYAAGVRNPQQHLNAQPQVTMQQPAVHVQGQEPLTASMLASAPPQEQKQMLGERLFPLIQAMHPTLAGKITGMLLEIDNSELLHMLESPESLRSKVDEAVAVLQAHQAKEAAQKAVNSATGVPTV
UniProt P12036: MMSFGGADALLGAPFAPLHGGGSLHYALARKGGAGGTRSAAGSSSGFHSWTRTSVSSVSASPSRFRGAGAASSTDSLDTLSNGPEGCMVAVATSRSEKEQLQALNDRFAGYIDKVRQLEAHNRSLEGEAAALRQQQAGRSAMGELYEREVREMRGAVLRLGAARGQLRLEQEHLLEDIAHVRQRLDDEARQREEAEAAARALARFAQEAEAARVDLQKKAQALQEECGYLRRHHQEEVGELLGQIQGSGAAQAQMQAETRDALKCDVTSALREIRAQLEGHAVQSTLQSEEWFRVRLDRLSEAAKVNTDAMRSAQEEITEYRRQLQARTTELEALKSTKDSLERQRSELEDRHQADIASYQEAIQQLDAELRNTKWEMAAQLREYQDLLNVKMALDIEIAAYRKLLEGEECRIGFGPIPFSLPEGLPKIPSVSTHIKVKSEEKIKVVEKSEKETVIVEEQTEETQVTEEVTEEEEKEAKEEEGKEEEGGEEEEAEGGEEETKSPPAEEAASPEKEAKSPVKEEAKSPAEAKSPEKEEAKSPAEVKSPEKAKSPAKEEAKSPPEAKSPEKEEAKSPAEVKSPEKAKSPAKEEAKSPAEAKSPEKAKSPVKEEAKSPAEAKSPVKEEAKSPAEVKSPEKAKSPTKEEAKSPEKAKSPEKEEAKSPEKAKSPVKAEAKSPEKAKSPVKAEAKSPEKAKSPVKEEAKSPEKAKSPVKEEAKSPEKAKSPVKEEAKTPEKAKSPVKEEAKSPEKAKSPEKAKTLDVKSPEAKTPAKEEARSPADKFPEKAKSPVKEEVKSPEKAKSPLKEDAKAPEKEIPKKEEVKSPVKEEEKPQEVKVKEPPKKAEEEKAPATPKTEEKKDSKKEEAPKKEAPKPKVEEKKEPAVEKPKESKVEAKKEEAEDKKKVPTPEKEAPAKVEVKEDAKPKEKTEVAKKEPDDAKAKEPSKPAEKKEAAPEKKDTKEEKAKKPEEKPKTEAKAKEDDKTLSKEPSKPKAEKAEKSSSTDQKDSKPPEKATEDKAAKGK
UniProt P05114: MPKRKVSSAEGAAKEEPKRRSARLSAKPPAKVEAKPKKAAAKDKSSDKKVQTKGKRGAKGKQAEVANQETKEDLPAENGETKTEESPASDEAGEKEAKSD
UniProt P07355, whole entry: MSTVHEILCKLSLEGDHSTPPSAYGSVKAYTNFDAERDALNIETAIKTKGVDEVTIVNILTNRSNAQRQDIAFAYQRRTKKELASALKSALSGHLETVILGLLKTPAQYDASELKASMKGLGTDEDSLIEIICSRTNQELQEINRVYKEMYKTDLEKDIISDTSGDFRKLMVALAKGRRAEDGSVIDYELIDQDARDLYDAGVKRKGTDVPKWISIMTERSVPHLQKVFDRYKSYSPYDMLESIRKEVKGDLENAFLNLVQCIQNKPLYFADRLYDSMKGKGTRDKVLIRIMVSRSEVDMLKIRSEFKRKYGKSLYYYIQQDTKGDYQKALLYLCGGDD
UniProt P12429: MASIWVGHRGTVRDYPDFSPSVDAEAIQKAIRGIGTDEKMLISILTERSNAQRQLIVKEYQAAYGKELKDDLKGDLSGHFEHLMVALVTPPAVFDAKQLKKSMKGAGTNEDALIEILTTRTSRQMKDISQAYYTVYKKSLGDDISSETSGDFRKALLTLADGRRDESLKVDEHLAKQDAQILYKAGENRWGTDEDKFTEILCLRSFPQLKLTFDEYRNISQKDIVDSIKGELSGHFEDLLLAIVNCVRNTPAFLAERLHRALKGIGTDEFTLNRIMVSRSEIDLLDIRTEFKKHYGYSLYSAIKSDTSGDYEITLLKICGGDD
UniProt P0CJ79: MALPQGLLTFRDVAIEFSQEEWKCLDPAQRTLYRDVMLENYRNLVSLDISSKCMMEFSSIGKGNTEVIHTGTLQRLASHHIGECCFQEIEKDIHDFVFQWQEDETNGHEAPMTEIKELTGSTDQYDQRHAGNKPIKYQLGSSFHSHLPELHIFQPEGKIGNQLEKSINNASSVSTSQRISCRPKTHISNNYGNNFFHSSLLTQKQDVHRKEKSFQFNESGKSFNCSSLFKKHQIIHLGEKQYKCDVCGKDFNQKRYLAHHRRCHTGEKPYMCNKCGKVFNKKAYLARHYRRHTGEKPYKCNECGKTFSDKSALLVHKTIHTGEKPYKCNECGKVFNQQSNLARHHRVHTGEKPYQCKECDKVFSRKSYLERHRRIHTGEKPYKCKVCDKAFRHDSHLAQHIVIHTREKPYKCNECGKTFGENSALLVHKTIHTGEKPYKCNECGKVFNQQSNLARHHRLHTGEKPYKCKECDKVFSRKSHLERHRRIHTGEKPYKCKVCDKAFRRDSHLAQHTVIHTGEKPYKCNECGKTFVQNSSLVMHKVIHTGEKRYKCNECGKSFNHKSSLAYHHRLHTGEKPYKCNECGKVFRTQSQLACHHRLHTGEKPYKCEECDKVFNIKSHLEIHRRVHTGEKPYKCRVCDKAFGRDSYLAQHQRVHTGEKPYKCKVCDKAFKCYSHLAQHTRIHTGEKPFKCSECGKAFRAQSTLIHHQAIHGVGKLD
UniProt P00738: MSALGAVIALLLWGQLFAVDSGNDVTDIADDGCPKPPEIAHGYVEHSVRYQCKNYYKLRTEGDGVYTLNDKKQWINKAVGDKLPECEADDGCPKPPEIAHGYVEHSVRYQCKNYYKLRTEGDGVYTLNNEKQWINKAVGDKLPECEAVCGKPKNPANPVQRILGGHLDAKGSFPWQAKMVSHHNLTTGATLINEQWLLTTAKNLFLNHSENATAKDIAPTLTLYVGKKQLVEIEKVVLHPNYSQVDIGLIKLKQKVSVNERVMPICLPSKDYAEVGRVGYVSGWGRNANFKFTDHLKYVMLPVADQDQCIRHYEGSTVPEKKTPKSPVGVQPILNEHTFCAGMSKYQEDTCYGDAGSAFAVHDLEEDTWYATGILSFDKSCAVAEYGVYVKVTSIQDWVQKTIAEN
UniProt P12236: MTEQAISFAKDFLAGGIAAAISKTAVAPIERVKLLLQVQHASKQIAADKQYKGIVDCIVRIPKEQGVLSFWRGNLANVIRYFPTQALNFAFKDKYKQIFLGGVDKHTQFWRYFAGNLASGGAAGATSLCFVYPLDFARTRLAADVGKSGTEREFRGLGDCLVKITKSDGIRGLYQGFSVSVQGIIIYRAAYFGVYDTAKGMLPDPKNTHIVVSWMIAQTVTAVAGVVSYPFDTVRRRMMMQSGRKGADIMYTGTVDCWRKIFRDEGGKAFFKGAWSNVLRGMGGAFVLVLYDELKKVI

| Target | log2 fold change |
| --- | --- |
| JUN (peptide sequence: NVTDEQEGFAEGFVR, peptide start residue: 102) (UniProt P05412) | -0.379 |
| RPN1 (peptide sequence: VACITEQVLTLVNKR, peptide start residue: 475) (UniProt P04843) | -0.199 |
| UniProt P10276 (peptide sequence: AACLDILILR, peptide start residue: 263) | 0.102 |
| ESRRA (peptide sequence: CLPGHKEEEDGEGAGPGEQGGGK, peptide start residue: 46) (UniProt P11474) | -0.146 |
| TFPI (peptide sequence: IAYEEIFVK, peptide start residue: 294) (UniProt P10646) | -0.0868 |
| KRT18 (peptide sequence: VIDDTNITR, peptide start residue: 188) (UniProt P05783) | 0.245 |
| COX5B (peptide sequence: EDPNLVPSISNKR, peptide start residue: 75) (UniProt P10606) | 0.213 |
| EEF1AKMT4 (peptide sequence: EVEYWDQR, peptide start residue: 22) (UniProt P0DPD7) | -0.113 |
| ANXA1 (peptide sequence: KGTDVNVFNTILTTRSYPQLR, peptide start residue: 214) (UniProt P04083) | 0.94 |
| RNH1 (peptide sequence: CKDISSALR, peptide start residue: 45) (UniProt P13489) | 0.255 |
| CFH (peptide sequence: TTCWDGKLEYPTCAK, peptide start residue: 1216) (UniProt P08603) | -0.0418 |
| UniProt P0C7P4 (peptide sequence: RLEVLDSTK, peptide start residue: 93) | -0.165 |
| UniProt P02144 (peptide sequence: KGHHEAEIK, peptide start residue: 80) | -0.0341 |
| UniProt P05019 (peptide sequence: RLEMYCAPLKPAK, peptide start residue: 104) | -0.144 |
| CLTB (peptide sequence: DLEEWNQR, peptide start residue: 135) (UniProt P09497) | -0.143 |
| PABPC1 (peptide sequence: SKGFGFVSFER, peptide start residue: 230) (UniProt P11940) | -0.129 |
| CTSD (peptide sequence: QPGITFIAAK, peptide start residue: 185) (UniProt P07339) | 0.363 |
| HSPD1 (peptide sequence: IPAMTIAK, peptide start residue: 474) (UniProt P10809) | -0.244 |
| BCKDHA (peptide sequence: QMPVHYGCK, peptide start residue: 190) (UniProt P12694) | 0.452 |
| NEFH (peptide sequence: SPVKEEEKPQEVK, peptide start residue: 828) (UniProt P12036) | -0.509 |

| Target | log2 fold change |
| --- | --- |
| HMGN1 (peptide sequence: TEESPASDEAGEKEAK, peptide start residue: 83) (UniProt P05114) | -0.304 |
| IMPDH2 (peptide sequence: HGFCGIPITDTGR, peptide start residue: 137) (UniProt P12268) | 0.184 |
| ANXA2 (peptide sequence: KGTDVPKWISIMTER, peptide start residue: 206) (UniProt P07355) | 0.453 |
| UQCRH (peptide sequence: LELCDER, peptide start residue: 50) (UniProt P07919) | 0.0462 |
| UniProt P0DMM9 (peptide sequence: SHLPLALLPQTLLDQK, peptide start residue: 107) | 0.075 |
| ANXA3 (peptide sequence: MLISILTER, peptide start residue: 40) (UniProt P12429) | 0.0841 |
| CKM (peptide sequence: GIWHNDNK, peptide start residue: 216) (UniProt P06732) | -0.173 |
| UniProt P09017 (peptide sequence: QQVLELEKEFHYNR, peptide start residue: 172) | -0.467 |
| UniProt P08240 (peptide sequence: KFEDSEK, peptide start residue: 138) | 0.43 |
| POLR3D (peptide sequence: NMPVQLPLAHSGWLFK, peptide start residue: 175) (UniProt P05423) | 0.579 |
| UniProt P04731 (peptide sequence: CAQGCICK, peptide start residue: 44) | -0.0444 |
| UniProt P0CJ79 (peptide sequence: SFQFNESGK, peptide start residue: 213) | -0.164 |
| UniProt P08134 (peptide sequence: HFCPNVPIILVGNKK, peptide start residue: 105) | 0.136 |
| ENO1 (peptide sequence: SILKIHAR, peptide start residue: 2) (UniProt P06733) | 1.27 |
| HP (peptide sequence: LPECEAVCGKPK, peptide start residue: 142) (UniProt P00738) | 0.162 |
| SLC25A6 (peptide sequence: EQGVLSFWR, peptide start residue: 64) (UniProt P12236) | -0.137 |
| PFKM (peptide sequence: NVLGHMQQGGSPTPFDR, peptide start residue: 657) (UniProt P08237) | 0.234 |
| PDIA4 (peptide sequence: SKVLEVAK, peptide start residue: 436) (UniProt P13667) | 0.593 |
| GPI (peptide sequence: NLVTEDVMR, peptide start residue: 58) (UniProt P06744) | -0.239 |

Quoted from the listing:
In log2 fold change, POLR3D (peptide sequence: NMPVQLPLAHSGWLFK, peptide start residue: 175) (UniProt P05423) has the entry 0.579
In log2 fold change, CTSD (peptide sequence: QPGITFIAAK, peptide start residue: 185) (UniProt P07339) has the entry 0.363
